This is one part of the list. The calls rarely recur for the same compound in another form.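 In K562 cells expressing nanoluciferase-fused kinases, luminescence was recorded at 4 h intervals between 2 and 18 h, normalized as percent of control with DMSO at 100% and a positive control at 0%. A significant (2 sigma) signal drop marks a time point as decreased. The authors' rule for a hit is not shown and takes in more than the number of time points.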
Experiments:
Conditions in all cases: K562; 2-18 h
[1] = target: STK38 (UniProt Q15208); assay: kinase-Nluc reporter destabilization hit call (1 = scored as downregulated) (binary); higher = compound decreases kinase abundance
[2] = target: SYK (UniProt P43405); assay: as above
[3] = target: TEC (UniProt P42680); assay: as above
[4] = target: TYK2 (UniProt P29597); assay: as above
[5] = target: ULK3 (UniProt Q6PHR2); assay: as above
[6] = target: YES1 (UniProt P07947); assay: as above
[7] = target: ZAK (UniProt Q9NYL2); assay: as above
[8] = target: ZAP70 (UniProt P43403); assay: as above
[9] = target: ABL1 (UniProt P00519); assay: number of time points (of 5) at which kinase-Nluc abundance scored as decreased, DMSO-normalised (count); higher = more persistent destabilization
[10] = target: AKT1 (UniProt P31749); assay: as above
[11] = target: ALK (UniProt Q9UM73); assay: as above
[12] = target: ARAF (UniProt P10398); assay: as above
[13] = target: AURKA (UniProt O14965); assay: as above
[14] = target: AURKB (UniProt Q96GD4); assay: as above
[15] = target: AURKC (UniProt Q9UQB9); assay: as above
[16] = target: BLK (UniProt P51451); assay: as above
[17] = target: BMX (UniProt P51813); assay: as above
[18] = test system: BRAF_V600E; assay: as above
[19] = target: BTK (UniProt Q06187); assay: as above
[20] = target: BRAF (UniProt P15056); assay: as above

The chains behind the UniProt entries cited, without tags or fusion partners. Where a name states a change or a piece, a line headed by the entry shows the natural chain unless it says otherwise.
UniProt Q15208: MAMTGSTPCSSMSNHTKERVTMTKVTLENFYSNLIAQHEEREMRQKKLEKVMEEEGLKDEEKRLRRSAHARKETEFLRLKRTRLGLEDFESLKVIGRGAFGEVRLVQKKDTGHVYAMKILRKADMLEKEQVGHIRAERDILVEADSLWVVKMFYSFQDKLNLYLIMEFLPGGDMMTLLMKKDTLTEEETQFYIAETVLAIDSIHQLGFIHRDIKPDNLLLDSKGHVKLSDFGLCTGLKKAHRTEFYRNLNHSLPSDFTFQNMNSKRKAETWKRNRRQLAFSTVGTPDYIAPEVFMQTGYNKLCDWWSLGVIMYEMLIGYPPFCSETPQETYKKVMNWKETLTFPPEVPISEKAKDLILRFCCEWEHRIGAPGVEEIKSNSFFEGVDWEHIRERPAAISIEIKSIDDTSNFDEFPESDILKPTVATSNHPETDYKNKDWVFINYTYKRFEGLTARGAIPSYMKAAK
UniProt Q6PHR2: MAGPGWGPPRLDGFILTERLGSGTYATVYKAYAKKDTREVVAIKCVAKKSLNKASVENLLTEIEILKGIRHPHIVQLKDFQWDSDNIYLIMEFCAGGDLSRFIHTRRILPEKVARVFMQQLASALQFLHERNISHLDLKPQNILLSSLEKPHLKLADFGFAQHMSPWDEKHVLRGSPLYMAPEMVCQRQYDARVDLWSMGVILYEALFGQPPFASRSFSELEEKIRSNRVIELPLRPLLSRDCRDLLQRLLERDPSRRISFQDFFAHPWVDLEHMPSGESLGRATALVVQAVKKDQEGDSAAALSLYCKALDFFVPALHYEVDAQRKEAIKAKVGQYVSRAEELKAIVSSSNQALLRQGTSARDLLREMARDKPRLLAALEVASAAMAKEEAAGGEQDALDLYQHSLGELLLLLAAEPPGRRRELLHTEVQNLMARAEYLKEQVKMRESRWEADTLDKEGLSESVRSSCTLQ
UniProt P00519, whole entry: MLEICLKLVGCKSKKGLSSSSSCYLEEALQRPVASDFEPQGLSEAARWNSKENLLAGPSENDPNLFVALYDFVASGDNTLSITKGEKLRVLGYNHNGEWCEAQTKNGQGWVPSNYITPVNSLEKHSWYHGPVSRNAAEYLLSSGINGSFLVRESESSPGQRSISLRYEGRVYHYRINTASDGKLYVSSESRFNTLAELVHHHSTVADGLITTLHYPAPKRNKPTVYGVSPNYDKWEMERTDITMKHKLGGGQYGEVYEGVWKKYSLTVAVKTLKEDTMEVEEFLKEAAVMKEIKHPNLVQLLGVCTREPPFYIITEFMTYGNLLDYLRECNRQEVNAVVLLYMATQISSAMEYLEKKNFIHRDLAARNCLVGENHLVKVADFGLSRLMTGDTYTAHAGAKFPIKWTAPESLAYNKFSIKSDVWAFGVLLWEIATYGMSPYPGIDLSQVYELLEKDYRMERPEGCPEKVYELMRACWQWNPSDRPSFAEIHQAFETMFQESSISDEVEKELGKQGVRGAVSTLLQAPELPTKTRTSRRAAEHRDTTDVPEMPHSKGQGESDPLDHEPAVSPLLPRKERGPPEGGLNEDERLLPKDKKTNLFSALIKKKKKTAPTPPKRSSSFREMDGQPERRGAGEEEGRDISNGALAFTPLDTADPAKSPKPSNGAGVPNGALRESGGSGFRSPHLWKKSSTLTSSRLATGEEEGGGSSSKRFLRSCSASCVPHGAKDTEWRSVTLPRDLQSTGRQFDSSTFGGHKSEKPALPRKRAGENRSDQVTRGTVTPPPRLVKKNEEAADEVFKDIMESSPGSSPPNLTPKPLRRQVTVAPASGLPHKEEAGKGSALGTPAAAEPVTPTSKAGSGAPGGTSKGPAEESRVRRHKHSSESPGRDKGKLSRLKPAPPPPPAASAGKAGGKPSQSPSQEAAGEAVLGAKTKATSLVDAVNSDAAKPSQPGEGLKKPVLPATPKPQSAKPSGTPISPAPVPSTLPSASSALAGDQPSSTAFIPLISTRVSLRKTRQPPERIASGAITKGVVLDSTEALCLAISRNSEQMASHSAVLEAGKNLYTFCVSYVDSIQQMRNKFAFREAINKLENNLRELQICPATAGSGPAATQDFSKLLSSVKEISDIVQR
UniProt P31749: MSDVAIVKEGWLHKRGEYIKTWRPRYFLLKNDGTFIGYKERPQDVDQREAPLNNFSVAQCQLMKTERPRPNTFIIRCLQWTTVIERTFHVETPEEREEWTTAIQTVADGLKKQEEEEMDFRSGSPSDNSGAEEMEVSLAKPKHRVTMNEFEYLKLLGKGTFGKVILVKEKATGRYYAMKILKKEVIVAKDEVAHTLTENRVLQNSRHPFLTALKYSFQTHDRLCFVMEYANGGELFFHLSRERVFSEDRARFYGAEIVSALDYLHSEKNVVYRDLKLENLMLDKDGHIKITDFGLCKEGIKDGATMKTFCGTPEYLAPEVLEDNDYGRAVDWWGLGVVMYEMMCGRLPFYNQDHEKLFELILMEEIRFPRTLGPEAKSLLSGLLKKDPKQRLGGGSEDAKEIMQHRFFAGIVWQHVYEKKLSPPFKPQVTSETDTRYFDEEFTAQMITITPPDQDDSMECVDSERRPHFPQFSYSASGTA
UniProt Q9UM73: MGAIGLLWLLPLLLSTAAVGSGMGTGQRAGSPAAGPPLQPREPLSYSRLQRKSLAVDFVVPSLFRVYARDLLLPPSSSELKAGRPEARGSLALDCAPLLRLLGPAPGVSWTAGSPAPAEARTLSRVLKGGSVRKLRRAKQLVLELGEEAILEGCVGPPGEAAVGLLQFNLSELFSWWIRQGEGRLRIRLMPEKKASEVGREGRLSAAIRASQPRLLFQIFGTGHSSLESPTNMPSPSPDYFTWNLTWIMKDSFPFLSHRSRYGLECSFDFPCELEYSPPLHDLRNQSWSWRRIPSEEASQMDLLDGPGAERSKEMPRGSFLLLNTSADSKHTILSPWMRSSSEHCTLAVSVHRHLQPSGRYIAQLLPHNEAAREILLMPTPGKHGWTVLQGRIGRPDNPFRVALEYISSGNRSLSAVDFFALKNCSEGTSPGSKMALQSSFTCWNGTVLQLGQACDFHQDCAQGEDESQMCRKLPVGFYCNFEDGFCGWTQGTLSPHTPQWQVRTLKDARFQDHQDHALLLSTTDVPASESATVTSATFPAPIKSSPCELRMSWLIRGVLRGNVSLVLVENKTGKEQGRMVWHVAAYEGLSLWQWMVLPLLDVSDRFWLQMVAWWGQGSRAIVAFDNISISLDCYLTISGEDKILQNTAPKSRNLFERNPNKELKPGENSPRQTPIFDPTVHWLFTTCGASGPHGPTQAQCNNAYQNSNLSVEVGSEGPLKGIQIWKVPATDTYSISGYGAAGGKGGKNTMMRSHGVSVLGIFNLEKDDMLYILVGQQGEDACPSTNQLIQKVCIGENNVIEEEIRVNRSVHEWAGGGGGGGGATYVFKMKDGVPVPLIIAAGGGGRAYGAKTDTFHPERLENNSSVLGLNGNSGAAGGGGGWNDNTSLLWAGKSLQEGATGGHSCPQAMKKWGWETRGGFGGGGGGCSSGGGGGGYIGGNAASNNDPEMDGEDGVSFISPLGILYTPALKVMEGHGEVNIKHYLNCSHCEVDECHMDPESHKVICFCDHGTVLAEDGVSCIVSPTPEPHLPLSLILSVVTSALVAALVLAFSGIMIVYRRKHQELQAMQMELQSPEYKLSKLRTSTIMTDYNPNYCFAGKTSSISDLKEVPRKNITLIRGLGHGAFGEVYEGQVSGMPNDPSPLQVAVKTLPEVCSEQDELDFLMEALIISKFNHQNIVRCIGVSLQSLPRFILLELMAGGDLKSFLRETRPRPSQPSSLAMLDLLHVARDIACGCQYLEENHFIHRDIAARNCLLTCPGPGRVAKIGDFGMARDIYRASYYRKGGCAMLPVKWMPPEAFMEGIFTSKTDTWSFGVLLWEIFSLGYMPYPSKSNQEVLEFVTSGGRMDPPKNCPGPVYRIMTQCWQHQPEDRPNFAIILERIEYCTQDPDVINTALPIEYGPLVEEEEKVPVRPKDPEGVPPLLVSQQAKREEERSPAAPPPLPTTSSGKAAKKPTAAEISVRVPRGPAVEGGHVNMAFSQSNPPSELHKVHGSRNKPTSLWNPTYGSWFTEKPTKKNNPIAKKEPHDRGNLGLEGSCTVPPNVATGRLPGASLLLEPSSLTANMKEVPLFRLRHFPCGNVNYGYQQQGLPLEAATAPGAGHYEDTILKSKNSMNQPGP
UniProt Q96GD4, whole entry: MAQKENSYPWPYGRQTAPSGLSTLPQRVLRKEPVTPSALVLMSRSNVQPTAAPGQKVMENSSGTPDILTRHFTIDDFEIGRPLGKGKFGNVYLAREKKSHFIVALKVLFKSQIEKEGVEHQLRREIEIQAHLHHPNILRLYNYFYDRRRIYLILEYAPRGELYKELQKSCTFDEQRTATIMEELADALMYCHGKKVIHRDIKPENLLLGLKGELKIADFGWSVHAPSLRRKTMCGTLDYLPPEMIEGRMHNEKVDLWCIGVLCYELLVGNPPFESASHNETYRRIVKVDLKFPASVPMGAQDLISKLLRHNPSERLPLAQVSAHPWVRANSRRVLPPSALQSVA
UniProt P51451: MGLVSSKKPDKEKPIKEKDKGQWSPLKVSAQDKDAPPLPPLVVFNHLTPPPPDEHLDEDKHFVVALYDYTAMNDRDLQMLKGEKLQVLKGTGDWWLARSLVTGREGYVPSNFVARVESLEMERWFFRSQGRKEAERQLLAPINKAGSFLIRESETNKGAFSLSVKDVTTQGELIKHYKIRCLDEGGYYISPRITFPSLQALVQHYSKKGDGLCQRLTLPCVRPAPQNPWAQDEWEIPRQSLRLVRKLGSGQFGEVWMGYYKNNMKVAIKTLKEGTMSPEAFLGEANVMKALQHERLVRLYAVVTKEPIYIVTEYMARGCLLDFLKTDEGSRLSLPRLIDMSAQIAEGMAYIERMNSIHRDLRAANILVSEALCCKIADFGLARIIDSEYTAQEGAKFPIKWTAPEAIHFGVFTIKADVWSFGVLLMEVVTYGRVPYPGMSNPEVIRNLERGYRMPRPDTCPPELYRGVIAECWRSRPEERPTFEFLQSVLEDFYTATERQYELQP
UniProt P51813: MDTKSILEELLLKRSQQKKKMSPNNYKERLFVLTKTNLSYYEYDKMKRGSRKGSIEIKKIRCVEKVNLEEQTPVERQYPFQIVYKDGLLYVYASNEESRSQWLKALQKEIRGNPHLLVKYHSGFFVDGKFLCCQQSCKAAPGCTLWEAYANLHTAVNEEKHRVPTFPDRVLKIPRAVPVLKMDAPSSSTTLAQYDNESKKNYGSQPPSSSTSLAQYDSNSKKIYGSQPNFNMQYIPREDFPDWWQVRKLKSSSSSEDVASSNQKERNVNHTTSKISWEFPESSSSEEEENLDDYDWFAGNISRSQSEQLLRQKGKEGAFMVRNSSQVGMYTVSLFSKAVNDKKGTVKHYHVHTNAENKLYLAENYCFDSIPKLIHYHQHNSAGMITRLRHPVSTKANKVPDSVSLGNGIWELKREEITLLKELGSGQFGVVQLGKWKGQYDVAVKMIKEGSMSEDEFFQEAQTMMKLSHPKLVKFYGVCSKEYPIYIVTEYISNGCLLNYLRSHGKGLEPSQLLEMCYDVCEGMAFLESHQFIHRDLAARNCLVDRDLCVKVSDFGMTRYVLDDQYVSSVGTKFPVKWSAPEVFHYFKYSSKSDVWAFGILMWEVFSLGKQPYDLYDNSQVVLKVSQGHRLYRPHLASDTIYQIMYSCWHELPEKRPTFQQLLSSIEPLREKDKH
UniProt Q06187: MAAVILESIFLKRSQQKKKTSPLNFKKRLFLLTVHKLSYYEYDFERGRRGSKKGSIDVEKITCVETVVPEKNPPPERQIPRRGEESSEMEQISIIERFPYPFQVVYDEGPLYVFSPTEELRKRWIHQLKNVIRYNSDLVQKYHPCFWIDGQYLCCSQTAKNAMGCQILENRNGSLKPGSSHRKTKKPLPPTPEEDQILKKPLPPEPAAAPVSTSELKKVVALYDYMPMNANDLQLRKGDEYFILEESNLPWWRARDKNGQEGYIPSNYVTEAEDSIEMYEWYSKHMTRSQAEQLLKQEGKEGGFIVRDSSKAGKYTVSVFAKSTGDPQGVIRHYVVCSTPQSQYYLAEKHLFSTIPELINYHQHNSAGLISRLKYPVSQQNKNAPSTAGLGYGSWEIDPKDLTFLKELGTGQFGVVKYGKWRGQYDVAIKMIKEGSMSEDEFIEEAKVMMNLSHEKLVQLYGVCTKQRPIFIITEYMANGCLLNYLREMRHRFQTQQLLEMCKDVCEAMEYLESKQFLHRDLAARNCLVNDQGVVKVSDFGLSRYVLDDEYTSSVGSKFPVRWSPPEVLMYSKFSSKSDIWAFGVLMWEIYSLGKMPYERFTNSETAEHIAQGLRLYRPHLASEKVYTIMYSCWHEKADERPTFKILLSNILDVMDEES

Row | SMILES | kinase-Nluc reporter destabilization hit call [1] | kinase-Nluc reporter destabilization hit call [2] | kinase-Nluc reporter destabilization hit call [3] | kinase-Nluc reporter destabilization hit call [4] | kinase-Nluc reporter destabilization hit call [5] | kinase-Nluc reporter destabilization hit call [6] | kinase-Nluc reporter destabilization hit call [7] | kinase-Nluc reporter destabilization hit call [8] | number of time points [9] | number of time points [10] | number of time points [11] | number of time points [12] | number of time points [13] | number of time points [14] | number of time points [15] | number of time points [16] | number of time points [17] | number of time points [18] | number of time points [19] | number of time points [20]
1 | CC(C)(C#N)c1ccc(N2C(=O)OCc3cnc4ccc(-c5cnc6ccccc6c5)cc4c32)cc1 (2.5 µM) | inactive: 0 | inactive: 0 | inactive: 0 | inactive: 0 | inactive: 0 | inactive: 0 | inactive: 0 | inactive: 0 | 0 | 0 | 0 | 0 | 0 | 0 | 0 | 0 | 0 | 0 | 0 | 
2 | CC(C)(C)c1cc(NC(=O)Nc2ccc(-c3cn4c(n3)sc3cc(OCCN5CCOCC5)ccc34)cc2)no1 [Quizartinib] (10 µM) | inactive: 0 | inactive: 0 | inactive: 0 | inactive: 0 | inactive: 0 | inactive: 0 | inactive: 0 | inactive: 0 | 4 | 0 | 2 | 0 | 0 | 0 | 0 | 4 | 0 | 0 | 0 | 
3 | Cc1ccc2c(Nc3ccc(Cl)cc3)nccc2c1Nc1ncccc1-c1ncnc2nc[nH]c12 [Raf inhibitor 1] (2.5 µM) | inactive: 0 | inactive: 0 | inactive: 0 | inactive: 0 | inactive: 0 | inactive: 0 | inactive: 0 | inactive: 0 | 0 | 0 | 0 | 0 | 0 | 0 | 0 | 0 | 0 | 0 | 0 | 
4 | COCc1c(-c2ccc(NC(=O)Nc3cc(C(F)(F)F)ccc3F)c(F)c2)c2c(N)ncnn2c1CN1CCOCC1 (2.5 µM) | inactive: 0 | inactive: 0 | inactive: 0 | inactive: 0 | inactive: 0 | inactive: 0 | inactive: 0 | inactive: 0 | 0 | 0 | 0 | 0 | 0 | 0 | 0 | 0 | 1 | 0 | 0 | 
5 | CN1CCN(S(=O)(=O)c2ccc(-c3cnc(N)c(C(=O)Nc4cccnc4)n3)cc2)CC1 (10 µM) | inactive: 0 | inactive: 0 | inactive: 0 | inactive: 0 | inactive: 0 | inactive: 0 | inactive: 0 | inactive: 0 | 0 | 0 | 0 | 0 | 0 | 0 | 0 | 0 | 2 |  | 0 | 0
6 | COC(=O)c1ccc2c(C(=Nc3ccc(N(C)C(=O)CN4CCN(C)CC4)cc3)c3ccccc3)c(O)[nH]c2c1 [Nintedanib] (2.5 µM) | inactive: 0 | inactive: 0 | inactive: 0 | inactive: 0 | inactive: 0 | inactive: 0 | inactive: 0 | inactive: 0 | 0 | 0 | 0 | 0 | 0 | 0 | 0 | 0 | 0 |  | 0 | 0
7 | COc1cc2ncnc(Nc3ccc(O)cc3)c2cc1OC (10 µM) | inactive: 0 | inactive: 0 | inactive: 0 | inactive: 0 | inactive: 0 | inactive: 0 | inactive: 0 | inactive: 0 | 0 | 0 | 0 | 0 | 0 | 0 | 0 | 0 | 0 | 0 | 0 | 
8 | CN(C)Cc1ccc(-c2cnn3c(-c4cccc(NC(=O)c5cccc(C(F)(F)F)c5)c4)ccnc23)cc1 (2.5 µM) | inactive: 0 | inactive: 0 | inactive: 0 | inactive: 0 | inactive: 0 | inactive: 0 | inactive: 0 | inactive: 0 | 0 | 0 | 0 | 0 | 0 | 0 | 0 | 0 | 0 | 0 | 0 | 
9 | CC(=O)NCC(=O)N1[C@@H]2CC[C@H]1c1ccc(Nc3ncc(C(F)(F)F)c(NC4CCC4)n3)cc12 (2.5 µM) | inactive: 0 |  | inactive: 0 | inactive: 0 | active: 1 | inactive: 0 | inactive: 0 | inactive: 0 | 4 | 0 | 1 | 0 | 4 | 3 | 0 | 3 | 4 | 3 | 0 | 0
10 | C[C@]1(O)C[C@@H](c2nc(-c3ccc4ccc(-c5ccccc5)nc4c3)c3c(N)nccn32)C1 [Linsitinib] (2.5 µM) | inactive: 0 |  | inactive: 0 | inactive: 0 | inactive: 0 | inactive: 0 | inactive: 0 | inactive: 0 | 0 | 0 | 0 | 0 | 0 | 0 | 0 | 0 | 0 | 0 | 0 | 0
11 | CN1CCN(c2ccc(C(=O)Nc3n[nH]c4ccc(Cc5cc(F)cc(F)c5)cc34)c(NC3CCOCC3)c2)CC1 [Entrectinib] (2.5 µM) | inactive: 0 | inactive: 0 | inactive: 0 | inactive: 0 | inactive: 0 | inactive: 0 | inactive: 0 | inactive: 0 | 0 | 0 | 0 | 0 | 0 | 0 | 0 | 0 | 0 | 0 | 0 | 
12 | COc1cc(Oc2ccnc3cc(OC)c(OC)cc23)ccc1NC(=O)NC(C)c1nccs1 (centres undefined) (2.5 µM) | inactive: 0 | inactive: 0 | inactive: 0 | inactive: 0 | inactive: 0 | inactive: 0 | inactive: 0 | inactive: 0 | 0 | 0 | 0 | 0 | 0 | 0 | 0 | 0 | 0 | 0 | 0 | 
13 | CCOc1ccn(-c2ccc(F)cc2)c(=O)c1C(=O)Nc1ccc(Oc2ccnc(N)c2Cl)c(F)c1 (10 µM) | inactive: 0 | inactive: 0 | inactive: 0 | inactive: 0 | inactive: 0 | inactive: 0 | inactive: 0 | inactive: 0 | 2 | 0 | 1 | 0 | 1 | 0 | 0 | 0 | 2 | 2 |  | 
14 | Cc1nc(N)sc1-c1ccnc(Nc2ccc(N3CCOCC3)cc2)n1 (10 µM) | inactive: 0 | inactive: 0 | inactive: 0 | inactive: 0 | inactive: 0 | inactive: 0 |  | inactive: 0 | 4 | 0 | 0 | 0 | 3 | 0 | 0 | 0 | 3 | 0 | 0 | 0
15 | Cc1cccc([C@@H](CO)NC(=O)[C@@H](C)N2Cc3ccc(-c4nc(NC5CCOCC5)ncc4Cl)cc3C2=O)c1 [ERK1/2 inhibitor 1] (10 µM) | inactive: 0 | inactive: 0 | inactive: 0 | inactive: 0 | inactive: 0 | inactive: 0 | inactive: 0 | inactive: 0 | 0 | 0 | 0 | 0 | 1 | 0 | 0 | 0 | 0 |  | 0 | 0
16 | Cc1c(Cn2c(C)nc3c(C(=O)O)cc(N4CCOCC4)cc32)cccc1C(F)(F)F (10 µM) | inactive: 0 | inactive: 0 | inactive: 0 | inactive: 0 | inactive: 0 | inactive: 0 |  |  | 0 | 0 | 0 | 0 | 0 | 0 | 0 | 0 | 0 | 0 | 0 | 0
17 | Cc1cc(N2CCOCC2)cc2[nH]c(-c3c(NC[C@@H](O)c4cccc(Cl)c4)cc[nH]c3=O)nc12 (10 µM) | inactive: 0 |  | inactive: 0 | inactive: 0 | inactive: 0 | inactive: 0 | inactive: 0 | inactive: 0 | 4 | 0 | 1 | 0 | 1 | 4 | 0 | 3 | 0 | 1 | 0 | 0
18 | CCCCNc1ncc(-c2ccc(CN3CCOCC3)cn2)c(NC2CCC(O)CC2)n1 (centres undefined) (10 µM) | inactive: 0 | inactive: 0 | inactive: 0 | inactive: 0 | inactive: 0 | inactive: 0 | inactive: 0 | inactive: 0 | 0 | 0 | 0 | 0 | 0 | 0 | 0 | 0 | 0 |  | 0 | 0
19 | CNC(=O)c1cccc2cc(Oc3ccnc4cc(OCC5(N)CC5)c(OC)cc34)ccc12 [Lucitanib] (10 µM) | inactive: 0 | inactive: 0 | inactive: 0 | inactive: 0 | inactive: 0 | inactive: 0 | inactive: 0 | inactive: 0 | 0 | 0 | 0 | 0 | 0 | 0 | 0 | 0 | 0 | 0 | 0 | 

In the list so far, 4 have a CF3 group:
Row | SMILES | kinase-Nluc reporter destabilization hit call [1] | kinase-Nluc reporter destabilization hit call [2] | kinase-Nluc reporter destabilization hit call [3] | kinase-Nluc reporter destabilization hit call [4] | kinase-Nluc reporter destabilization hit call [5] | kinase-Nluc reporter destabilization hit call [6] | kinase-Nluc reporter destabilization hit call [7] | kinase-Nluc reporter destabilization hit call [8] | number of time points [9] | number of time points [10] | number of time points [11] | number of time points [12] | number of time points [13] | number of time points [14] | number of time points [15] | number of time points [16] | number of time points [17] | number of time points [18] | number of time points [19] | number of time points [20]
4 | COCc1c(-c2ccc(NC(=O)Nc3cc(C(F)(F)F)ccc3F)c(F)c2)c2c(N)ncnn2c1CN1CCOCC1 (2.5 µM) | inactive: 0 | inactive: 0 | inactive: 0 | inactive: 0 | inactive: 0 | inactive: 0 | inactive: 0 | inactive: 0 | 0 | 0 | 0 | 0 | 0 | 0 | 0 | 0 | 1 | 0 | 0 | 
8 | CN(C)Cc1ccc(-c2cnn3c(-c4cccc(NC(=O)c5cccc(C(F)(F)F)c5)c4)ccnc23)cc1 (2.5 µM) | inactive: 0 | inactive: 0 | inactive: 0 | inactive: 0 | inactive: 0 | inactive: 0 | inactive: 0 | inactive: 0 | 0 | 0 | 0 | 0 | 0 | 0 | 0 | 0 | 0 | 0 | 0 | 
9 | CC(=O)NCC(=O)N1[C@@H]2CC[C@H]1c1ccc(Nc3ncc(C(F)(F)F)c(NC4CCC4)n3)cc12 (2.5 µM) | inactive: 0 |  | inactive: 0 | inactive: 0 | active: 1 | inactive: 0 | inactive: 0 | inactive: 0 | 4 | 0 | 1 | 0 | 4 | 3 | 0 | 3 | 4 | 3 | 0 | 0
16 | Cc1c(Cn2c(C)nc3c(C(=O)O)cc(N4CCOCC4)cc32)cccc1C(F)(F)F (10 µM) | inactive: 0 | inactive: 0 | inactive: 0 | inactive: 0 | inactive: 0 | inactive: 0 |  |  | 0 | 0 | 0 | 0 | 0 | 0 | 0 | 0 | 0 | 0 | 0 | 0

From the supplement of paper PMC12823440, “Inhibitors supercharge kinase turnover through native proteolytic circuits” (Nature, 2025)
